Data as given in PubChem BioAssay AID743454 (Peter MacCallum Cancer Centre, 2014)
The deposit covers about 18,000 reagents; this is a part drawn at random. 450 of all reagents (2.5%) were called active. 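Single biological run; no consistent viability z cut-off exists, so the class columns, not z-scores, define the calls.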 Unmarked entries are inactive. No sequences are given here.

- Purpose: 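Knock-downs lowering viability or raising caspase 3/7 activity in vorinostat-treated resistant cells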 (primary screen)
- Cell system: human HCT116-VR colon cancer cells, selected for vorinostat resistance
- Reagents: siRNA pool against human genes, 40 nM siRNA pool
- Time to read-out: vorinostat for 24 h, read-out about 72 h after transfection
- Conditions: vorinostat at 2.5 µM final
- Measurement: 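Two measures, CellTiter-Fluor viability and luminescent caspase 3/7 activity, each as fold change against same-plate mock wells, mean of duplicates, then screen-wide robust z-score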
- Reading the numbers: viability robust z-score: higher = more viable cells than screen typical; caspase robust z-score: higher = more caspase 3/7 activity than screen typical
- Active means: 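a knock-down is a hit when classed RV1 or RV2 for lowered viability, or CA1 or CA2 for caspase activation; those lethal without drug were dropped; hits were retested singly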

For RHO (GeneID 6010) the deposit lists viability hit class no change; caspase hit class no change; viability robust z-score -0.29; caspase robust z-score 0.24.
Depletion of TLK1 (GeneID 9874) came out at: viability hit class no change; caspase hit class no change; viability robust z-score 0.48; caspase robust z-score 1.44.
Against AHSA2P (GeneID 130872), the values are viability hit class no change; caspase hit class no change; viability robust z-score 0.58; caspase robust z-score 0.22.
Depletion of FBXW5 (GeneID 54461) gave: viability hit class no change; caspase hit class no change; viability robust z-score -2.42; caspase robust z-score 0.3.
Knock-down of DENND2B (GeneID 6764) came out at: viability hit class no change; caspase hit class no change; viability robust z-score -0.12; caspase robust z-score 4.25.
Silencing of OSBPL8 (GeneID 114882) gave: viability hit class no change; caspase hit class no change; viability robust z-score 0.36; caspase robust z-score -0.52.
PRODH (GeneID 5625) showed viability hit class no change; caspase hit class no change; viability robust z-score -0.97; caspase robust z-score 1.08.
Against GPR39 (GeneID 2863), the entry reads viability hit class no change; caspase hit class no change; viability robust z-score 0.22; caspase robust z-score 2.29.
SNX15 (GeneID 29907) scored viability hit class no change; caspase hit class no change; viability robust z-score 0.98; caspase robust z-score -0.72.
Silencing of ZNF474 (GeneID 133923) gave: viability hit class no change; caspase hit class no change; viability robust z-score 1.47; caspase robust z-score -0.17.
OR52L1 (GeneID 338751) showed viability hit class no change; caspase hit class no change; viability robust z-score 0.37; caspase robust z-score 0.3.
Against SLC6A4 (GeneID 6532), the entry reads viability hit class no change; caspase hit class no change; viability robust z-score -0.74; caspase robust z-score -0.14.
For SEMA3E (GeneID 9723), the entry reads viability hit class no change; caspase hit class no change; viability robust z-score 1.6; caspase robust z-score -0.67.
IL1B (GeneID 3553) showed viability hit class no change; caspase hit class no change; viability robust z-score 0.06; caspase robust z-score 0.1.

Records listed so far whose target name begins with S or s:
SNX15 (GeneID 29907) → viability hit class = no change; caspase hit class = no change; viability robust z-score = 0.98; caspase robust z-score = -0.72
SLC6A4 (GeneID 6532) → viability hit class = no change; caspase hit class = no change; viability robust z-score = -0.74; caspase robust z-score = -0.14
SEMA3E (GeneID 9723) → viability hit class = no change; caspase hit class = no change; viability robust z-score = 1.6; caspase robust z-score = -0.67
